Experimental data published in PMC4389572.
Results are given in words; binding and its absence hold for the method and conditions named.

Target: SH3_(lin-wt), linear N-terminal SH3 domain of c-Crk (residues 134-190 with an additional Gly191) (murine)
Assay: NMR relaxation (backbone 1H T2 and overall rotational correlation time from 15N relaxation); ~1 mM protein in 20 mM sodium phosphate, 100 mM NaCl, 20 mM DTT-d10, 10% D2O, 0.2% NaN3, pH 7.2, 34°C; both purified

B1: SH3_(lin-wt), linear N-terminal SH3 domain of c-Crk (residues 134-190 with an additional Gly191) (domain or fragment)
chain: AEYVRALFDFNGNDEEDLPFKKGDILRIRDKPEEQWWNAEDSEGKRGMIPVPYVEKYG
**Q.** For B1, which binding is on record?
**A.** no binding (tested: ~1 mM)
